Here are results for two molecules from PMC4809424.

The chains behind the UniProt entries cited, without tags or fusion partners.
UniProt P14635: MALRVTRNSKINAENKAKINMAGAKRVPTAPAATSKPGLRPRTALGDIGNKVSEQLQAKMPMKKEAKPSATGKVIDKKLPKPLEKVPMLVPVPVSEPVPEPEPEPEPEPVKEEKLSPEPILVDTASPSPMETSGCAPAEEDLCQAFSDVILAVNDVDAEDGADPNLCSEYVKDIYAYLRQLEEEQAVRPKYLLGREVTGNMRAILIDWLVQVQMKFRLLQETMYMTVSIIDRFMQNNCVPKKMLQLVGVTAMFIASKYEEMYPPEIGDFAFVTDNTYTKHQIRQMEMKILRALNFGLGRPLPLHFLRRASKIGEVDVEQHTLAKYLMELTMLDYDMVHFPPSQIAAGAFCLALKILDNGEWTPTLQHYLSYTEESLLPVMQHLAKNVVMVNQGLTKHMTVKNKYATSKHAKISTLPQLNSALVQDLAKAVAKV
UniProt P06493: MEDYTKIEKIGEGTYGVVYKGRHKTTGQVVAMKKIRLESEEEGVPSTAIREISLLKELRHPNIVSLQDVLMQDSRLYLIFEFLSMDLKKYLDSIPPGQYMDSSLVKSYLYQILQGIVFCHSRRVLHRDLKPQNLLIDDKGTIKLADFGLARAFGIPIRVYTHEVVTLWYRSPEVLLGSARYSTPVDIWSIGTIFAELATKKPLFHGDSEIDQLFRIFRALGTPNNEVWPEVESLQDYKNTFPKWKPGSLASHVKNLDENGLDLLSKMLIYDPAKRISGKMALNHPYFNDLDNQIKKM
UniProt Q12834: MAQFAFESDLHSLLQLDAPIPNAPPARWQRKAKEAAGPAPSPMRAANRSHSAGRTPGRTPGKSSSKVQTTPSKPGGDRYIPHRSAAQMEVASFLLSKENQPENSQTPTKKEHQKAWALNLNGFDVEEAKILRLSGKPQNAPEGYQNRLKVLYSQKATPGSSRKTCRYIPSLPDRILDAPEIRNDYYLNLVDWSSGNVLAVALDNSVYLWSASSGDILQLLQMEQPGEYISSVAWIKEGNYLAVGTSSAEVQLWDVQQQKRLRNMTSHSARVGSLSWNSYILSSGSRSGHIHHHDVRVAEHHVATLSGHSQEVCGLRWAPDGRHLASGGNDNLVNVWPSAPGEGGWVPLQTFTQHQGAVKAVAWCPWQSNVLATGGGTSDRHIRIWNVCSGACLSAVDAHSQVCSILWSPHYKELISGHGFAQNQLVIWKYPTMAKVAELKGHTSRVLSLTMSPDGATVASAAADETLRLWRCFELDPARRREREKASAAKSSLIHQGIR
UniProt Q9UM11: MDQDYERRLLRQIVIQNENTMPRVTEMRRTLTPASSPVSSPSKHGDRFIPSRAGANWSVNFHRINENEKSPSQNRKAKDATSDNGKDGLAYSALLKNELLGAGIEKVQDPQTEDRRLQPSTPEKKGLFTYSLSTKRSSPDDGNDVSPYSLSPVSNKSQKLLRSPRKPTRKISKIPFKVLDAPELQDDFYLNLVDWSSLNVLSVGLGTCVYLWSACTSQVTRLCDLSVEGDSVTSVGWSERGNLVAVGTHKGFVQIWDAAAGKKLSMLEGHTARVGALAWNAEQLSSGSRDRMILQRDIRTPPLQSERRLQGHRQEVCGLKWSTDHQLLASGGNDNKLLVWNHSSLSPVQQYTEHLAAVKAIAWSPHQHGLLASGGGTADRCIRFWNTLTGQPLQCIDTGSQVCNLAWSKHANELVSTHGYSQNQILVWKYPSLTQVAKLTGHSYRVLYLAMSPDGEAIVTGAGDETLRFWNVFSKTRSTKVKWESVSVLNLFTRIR
UniProt Q969H0: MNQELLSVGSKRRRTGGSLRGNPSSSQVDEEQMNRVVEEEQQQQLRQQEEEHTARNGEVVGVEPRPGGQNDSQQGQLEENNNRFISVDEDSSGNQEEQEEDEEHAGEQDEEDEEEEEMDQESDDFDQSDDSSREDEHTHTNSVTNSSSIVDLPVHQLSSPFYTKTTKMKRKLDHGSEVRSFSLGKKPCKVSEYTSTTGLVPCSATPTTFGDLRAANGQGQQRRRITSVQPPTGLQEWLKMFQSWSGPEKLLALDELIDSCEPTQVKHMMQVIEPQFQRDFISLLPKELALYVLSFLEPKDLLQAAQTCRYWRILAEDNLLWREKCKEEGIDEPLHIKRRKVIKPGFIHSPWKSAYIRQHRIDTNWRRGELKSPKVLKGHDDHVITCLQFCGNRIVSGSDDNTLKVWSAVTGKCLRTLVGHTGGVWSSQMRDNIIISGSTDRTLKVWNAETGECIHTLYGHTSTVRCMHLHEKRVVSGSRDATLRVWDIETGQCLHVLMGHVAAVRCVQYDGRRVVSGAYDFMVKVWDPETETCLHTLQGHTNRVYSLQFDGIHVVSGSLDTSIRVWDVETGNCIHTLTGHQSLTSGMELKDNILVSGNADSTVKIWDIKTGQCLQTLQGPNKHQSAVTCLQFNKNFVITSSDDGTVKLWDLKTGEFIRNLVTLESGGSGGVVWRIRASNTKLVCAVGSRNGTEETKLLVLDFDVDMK

Results are given in words; binding and its absence hold for the method and conditions named. Binding seen in cells or lysates may run through a third protein. Some results given as binding are weak or reduced against the parent protein; the word gives no strength. For part of these data: Tags and fused reporters may be left off the sequences shown.

The target in assay [1] is CCNB1 (endogenous) (human (endogenous in HCT116)) (UniProt P14635). Put plainly: co-IP; endogenous proteins in HCT116 lysate; immunoprecipitation with specific antibody, normal IgG as control; immunoblotting.
Assay [2] has as its target cyclin-dependent kinase 1 (CDK1), endogenous (human (endogenous in HCT116)) (UniProt P06493). The assay is described as above.
The target in assay [3] is CDC20 (UniProt Q12834). Put plainly: co-IP; transiently transfected HCT116 cells; RIPA lysis buffer with protease inhibitor; indicated antibody (1 ug/ml) and protein G-sepharose; immunoblotting; in Figure 5g cells with control or CDC20-specific siRNA. In general terms: A western blot detects proteins with antibodies after separation by electrophoresis.
The target in assay [4] is CDH1 (UniProt Q9UM11). The description is as above.
Assay [5] deals with Flag-tagged CCNB1 (UniProt P14635). The assay is described as above.
Assay [6] has as its target FBW7 (UniProt Q969H0). The description is as above.

B1: USP22 (endogenous) (enzyme, UniProt Q9UPT9 1-525)
chain: MVSRPEPEGEAMDAELAVAPPGCSHLGSFKVDNWKQNLRAIYQCFVWSGTAEARKRKAKSCICHVCGVHLNRLHSCLYCVFFGCFTKKHIHEHAKAKRHNLAIDLMYGGIYCFLCQDYIYDKDMEIIAKEEQRKAWKMQGVGEKFSTWEPTKRELELLKHNPKRRKITSNCTIGLRGLINLGNTCFMNCIVQALTHTPLLRDFFLSDRHRCEMQSPSSCLVCEMSSLFQEFYSGHRSPHIPYKLLHLVWTHARHLAGYEQQDAHEFLIAALDVLHRHCKGDDNGKKANNPNHCNCIIDQIFTGGLQSDVTCQVCHGVSTTIDPFWDISLDLPGSSTPFWPLSPGSEGNVVNGESHVSGTTTLTDCLRRFTRPEHLGSSAKIKCSGCHSYQESTKQLTMKKLPIVACFHLKRFEHSAKLRRKITTYVSFPLELDMTPFMASSKESRMNGQYQQPTDSLNNDNKYSLFAVVNHQGTLESGHYTSFIRQHKDQWFKCDDAIITKASIKDVLDSEGYLLFYHKQFLEYE
Turning to B1, the binding entry in assay [1] and in assay [2] was “binds” throughout.

B2: Myc-USP22 (enzyme, UniProt Q9UPT9 1-525)
chain: MVSRPEPEGEAMDAELAVAPPGCSHLGSFKVDNWKQNLRAIYQCFVWSGTAEARKRKAKSCICHVCGVHLNRLHSCLYCVFFGCFTKKHIHEHAKAKRHNLAIDLMYGGIYCFLCQDYIYDKDMEIIAKEEQRKAWKMQGVGEKFSTWEPTKRELELLKHNPKRRKITSNCTIGLRGLINLGNTCFMNCIVQALTHTPLLRDFFLSDRHRCEMQSPSSCLVCEMSSLFQEFYSGHRSPHIPYKLLHLVWTHARHLAGYEQQDAHEFLIAALDVLHRHCKGDDNGKKANNPNHCNCIIDQIFTGGLQSDVTCQVCHGVSTTIDPFWDISLDLPGSSTPFWPLSPGSEGNVVNGESHVSGTTTLTDCLRRFTRPEHLGSSAKIKCSGCHSYQESTKQLTMKKLPIVACFHLKRFEHSAKLRRKITTYVSFPLELDMTPFMASSKESRMNGQYQQPTDSLNNDNKYSLFAVVNHQGTLESGHYTSFIRQHKDQWFKCDDAIITKASIKDVLDSEGYLLFYHKQFLEYE
Consider B2, for which the binding entry in assay [3] was “binds”; in assay [4], “no binding”; in assay [5] it was “binds”; in assay [6] it was “no binding”.
